Cell number after 72 h of treatment

Compounds and concentrations:
SNS-314 (0.0008 µM): O=C(Nc1cccc(Cl)c1)Nc1ncc(CCNc2ncnc3ccsc23)s1
PLX4720 (0.08 µM): CCCS(=O)(=O)Nc1ccc(F)c(C(=O)c2c[nH]c3ncc(Cl)cc23)c1F
tipifarnib (0.01 µM): Cn1cncc1[C@@](N)(c1ccc(Cl)cc1)c1ccc2c(c1)c(-c1cccc(Cl)c1)cc(=O)n2C
SU6656 (0.4 µM): CN(C)S(=O)(=O)c1ccc2c(c1)/C(=C/c1cc3c([nH]1)CCCC3)C(=O)N2
temozolomide (2 µM): Cn1nnc2c(C(N)=O)ncn2c1=O
tozasertib (0.006 µM): Cc1cc(Nc2cc(N3CCN(C)CC3)nc(Sc3ccc(NC(=O)C4CC4)cc3)n2)n[nH]1
cediranib (0.4 µM): COc1cc2c(Oc3ccc4[nH]c(C)cc4c3F)ncnc2cc1OCCCN1CCCC1
crizotinib (0.2 µM): C[C@@H](Oc1cc(-c2cnn(C3CCNCC3)c2)cnc1N)c1c(Cl)ccc(F)c1Cl
OSU-03012 (1 µM): NCC(=O)Nc1ccc(-n2nc(C(F)(F)F)cc2-c2ccc3c(ccc4ccccc43)c2)cc1
vorinostat (0.08 µM): O=C(CCCCCCC(=O)Nc1ccccc1)NO

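Human melanoma cell lines in 1,536-well plates were treated with two drugs together for 72 h, then fixed, stained and imaged. Values are the number of DAPI-stained nuclei as a percentage of the DMSO control: 100 is no effect, lower means fewer cells. Every drug was used at one fixed concentration, the lower of two screened (a fifth of the higher). These are primary screening values without error estimates.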 This is part of the screen, not chosen by result.

Pair,C32,A375,A101D,A2058
OSU-03012 and crizotinib,99.8,14.2,83.1,92.9
temozolomide and SU6656,88.3,107,79.4,67.4
cediranib and PLX4720,74.0,59.5,89.3,100
SNS-314 and SU6656,68.8,98.8,95.5,95.8
SNS-314 and PLX4720,70.6,64.5,89.4,112
vorinostat and cediranib,90.9,105,94.6,102
PLX4720 and SU6656,65.3,69.8,77.8,99.9
cediranib and tozasertib,86.7,84.9,95.9,72.2
PLX4720 and vorinostat,84.6,78.3,95.2,102
cediranib and temozolomide,98.5,79.4,78.3,75.0
vorinostat and tipifarnib,97.4,96.6,84.5,92.2
tipifarnib and SU6656,84.7,87.4,89.1,85.7
SNS-314 and OSU-03012,84.7,42.0,107,101
SNS-314 and temozolomide,90.3,104,92.3,85.6
crizotinib and SNS-314,81.1,92.0,107,109
temozolomide and OSU-03012,107,19.3,99.2,91.8
tozasertib and SU6656,91.2,80.2,72.0,96.5
crizotinib and PLX4720,88.9,85.5,98.3,103
tipifarnib and OSU-03012,95.5,17.6,89.8,87.9
temozolomide and tipifarnib,106,72.8,87.2,76.4
cediranib and SNS-314,79.2,108,102,104
OSU-03012 and vorinostat,102,14.9,96.9,93.6
SNS-314 and tozasertib,59.7,98.2,93.4,96.3
vorinostat and temozolomide,116,106,104,80.7
vorinostat and crizotinib,91.2,127,93.2,98.1
tipifarnib and crizotinib,78.1,96.9,91.1,75.7
tipifarnib and tozasertib,101,107,87.9,93.8
tozasertib and vorinostat,89.5,92.3,74.3,109
PLX4720 and OSU-03012,76.1,12.6,97.2,98.2
SNS-314 and tipifarnib,85.8,80.6,88.8,87.5
OSU-03012 and tozasertib,81.3,17.9,95.4,106

4 of the entries, repeated:

{"pair": "tipifarnib and crizotinib", "C32": 78.1, "A375": 96.9, "A101D": 91.1, "A2058": 75.7}
{"pair": "vorinostat and cediranib", "C32": 90.9, "A375": 105, "A101D": 94.6, "A2058": 102}
{"pair": "SNS-314 and SU6656", "C32": 68.8, "A375": 98.8, "A101D": 95.5, "A2058": 95.8}
{"pair": "PLX4720 and SU6656", "C32": 65.3, "A375": 69.8, "A101D": 77.8, "A2058": 99.9}

Values as published with doi:10.1371/journal.pone.0140310, rounded.